Measurements: PubChem BioAssay AID1347426 (Functional Genomics Laboratory (NCATS/FGL), 2020)
Among all 31,000 sequences or so, about 1,400 (4.5%) were called active.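 Rule for the calls: active = median seed-adjusted z-score above 1 or below -1; inactive = the rest.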 This is one part of the list.

experiment: Novel Modifiers of Survival Motor Neuron (SMN) Protein: Gene Identification via Genome-wide siRNA Screen; details: HEK293T SMN2-luciferase reporter, siRNA knockdown, 72 h; actives lie on both sides;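 note: luminescence tracks full-length SMN protein made from the SMN2 reporter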
How it was run: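 Genome-wide siRNA screen (10418 genes, 3 siRNAs each, 1 pmol per well) by reverse transfection in HEK293T cells stably carrying an SMN2-luciferase reporter; luminescence after 72 hours, normalized to negative-control siRNA, log10-transformed, MAD-scored.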

Sequence	median seed-adjusted z-score
GAAGGUUAUGUUAACAGUATT against NAT11	inactive: 0.37
GGAGGAGAUAGGCACUGAATT against TIGD3	inactive: 0.486
GCCUUAUCAGGACCUCUGATT against RAB43	inactive: -0.0845
AGUUGUACCUGAUGAGGUATT against FLAD1	inactive: 0.367
UCCUAACCUCAGAAACUGATT against CAPS	active: -1.25
CCACUGCACCGACAUAAAATT against HABP2	inactive: -0.141
CAGCCCGUUUUGAAGGGUATT against CRIP3	active: 1.7
CACAUACCUUCGGCCCAGATT against CEBPE	inactive: -0.259
GCUACUUCUCCUGCACUUUTT against KRT81	inactive: -0.0955
CAAUUAGAUGAGAUGAAUUTT against SULT1E1	inactive: 0.509
CAGGGUCUAUGGUACCGUUTT against UBE3C	inactive: 0.0341
CAGUGCACAGUGAAACCAATT against ADAM11	inactive: 0.102
GACUCAUACGAGCGCAUUATT against SEMA4F	inactive: 0.139
CGUACUCAUUUGCAAGAUATT against ALKBH8	inactive: -0.487
AGAAAGCAAUUGGAUCACATT against NOX1	inactive: -0.221
CGAAAGAGGCAAAUAUGAATT against CBX3	inactive: -0.893
GGAAGGACGACAACACUGATT against GPA33	inactive: 0.138
GGUUUUUAAUCGCAAAGCATT against ZNF525	inactive: 0.134
CCUCAAUACACGAUAAGAATT against GZF1	inactive: 0.286
GAAUGCAGGGAGAAACUUATT against TRIM64	inactive: -0.024
AUACAGUUGUUGGAAAAGATT against IDS	inactive: -0.074
CGUUUAAAGAAAAUCGAAATT against TXNDC10	inactive: -0.0542
GCCUGUUGGUUCUCACGCUTT against PCDHA9	inactive: -0.295
CACUAGGAAUCACACCGUUTT against TINAG	inactive: 0.374
GACCUCUCCUUACUUAUUATT against DNAJC4	inactive: 0.566
GCAAAACCGGAAGACCUUATT against VAPB	inactive: 0.254
GCACUUACAGCAUCCAUGUTT against SEZ6L2	inactive: -0.331
GAUACAACCUGAAGGAUGATT against PPP2R2C	inactive: -0.87
GGAUUGUUGGAUAACCCUATT against SPTLC1	inactive: 0.0941
GGAUUGGAAGUGCCGACUATT against TRIM67	inactive: -0.431

In a second layout: entries from further up.
AGAAAGCAAUUGGAUCACATT against NOX1
  median seed-adjusted z-score: inactive: -0.221
GACCUCUCCUUACUUAUUATT against DNAJC4
  median seed-adjusted z-score: inactive: 0.566
